Experimental data reported in PMC10570038.

target: StrepII-His6-RBPMS-A ΔC20 (rat); experiment: pull-down; 2 μM StrepII-His6-RBPMS variant in 60% HeLa NE, 2.2 mM MgCl2, 2.6% PVA, 30°C 15 min; MagStrep 'type3' XT beads; six washes with 150 mM KCl buffer; elution with biotin; immunoblot; only the target purified

Binder	binding
RBFOX2 (protein, UniProt O43251 1-390) MQNEPLTPGYHGFPARDSQGNQEPTTTPDAMVQPFTTIPFPPPPQNGIPTEYGVPHTQDYAGQTGEHNLTLYGSTQAHGEQSSNSPSTQNGSLTTEGGAQTDGQQSQTQSSENSESKSTPKRLHVSNIPFRFRDPDLRQMFGQFGKILDVEIIFNERGSKGFGFVTFENSADADRAREKLHGTVVEGRKIEVNNATARVMTNKKMVTPYANGWKLSPVVGAVYGPELYAASSFQADVSLGNDAAVPLSGRGGINTYIPLISLPLVPGFPYPTAATTAAAFRGAHLRGRGRTVYGAVRAVPPTAIPAYPGVVYQDGFYGADLYGGYAAYRYAQPATATAATAAAAAAAAYSDGYGRVYTADPYHALAPAASYGVGAVASLYRGGYSRFAPY	no binding (tested: 2 μM StrepII-His6-RBPMS)
RBM14 (protein, UniProt Q96PK6 1-669) MKIFVGNVDGADTTPEELAALFAPYGTVMSCAVMKQFAFVHMRENAGALRAIEALHGHELRPGRALVVEMSRPRPLNTWKIFVGNVSAACTSQELRSLFERRGRVIECDVVKDYAFVHMEKEADAKAAIAQLNGKEVKGKRINVELSTKGQKKGPGLAVQSGDKTKKPGAGDTAFPGTGGFSATFDYQQAFGNSTGGFDGQARQPTPPFFGRDRSPLRRSPPRASYVAPLTAQPATYRAQPSVSLGAAYRAQPSASLGVGYRTQPMTAQAASYRAQPSVSLGAPYRGQLASPSSQSAAASSLGPYGGAQPSASALSSYGGQAAAASSLNSYGAQGSSLASYGNQPSSYGAQAASSYGVRAAASSYNTQGAASSLGSYGAQAASYGAQSAASSLAYGAQAASYNAQPSASYNAQSAPYAAQQAASYSSQPAAYVAQPATAAAYASQPAAYAAQATTPMAGSYGAQPVVQTQLNSYGAQASMGLSGSYGAQSAAAATGSYGAAAAYGAQPSATLAAPYRTQSSASLAASYAAQQHPQAAASYRGQPGNAYDGAGQPSAAYLSMSQGAVANANSTPPPYERTRLSPPRASYDDPYKKAVAMSKRYGSDRRLAELSDYRRLSESQLSFRRSPTKSSLDYRRLPDAHSDYARYSGSYNDYLRAAQMHSGYQRRM	binds
MATR3 (protein, UniProt P43243 1-847) MSKSFQQSSLSRDSQGHGRDLSAAGIGLLAAATQSLSMPASLGRMNQGTARLASLMNLGMSSSLNQQGAHSALSSASTSSHNLQSIFNIGSRGPLPLSSQHRGDADQASNILASFGLSARDLDELSRYPEDKITPENLPQILLQLKRRRTEEGPTLSYGRDGRSATREPPYRVPRDDWEEKRHFRRDSFDDRGPSLNPVLDYDHGSRSQESGYYDRMDYEDDRLRDGERCRDDSFFGETSHNYHKFDSEYERMGRGPGPLQERSLFEKKRGAPPSSNIEDFHGLLPKGYPHLCSICDLPVHSNKEWSQHINGASHSRRCQLLLEIYPEWNPDNDTGHTMGDPFMLQQSTNPAPGILGPPPPSFHLGGPAVGPRGNLGAGNGNLQGPRHMQKGRVETSRVVHIMDFQRGKNLRYQLLQLVEPFGVISNHLILNKINEAFIEMATTEDAQAAVDYYTTTPALVFGKPVRVHLSQKYKRIKKPEGKPDQKFDQKQELGRVIHLSNLPHSGYSDSAVLKLAEPYGKIKNYILMRMKSQAFIEMETREDAMAMVDHCLKKALWFQGRCVKVDLSEKYKKLVLRIPNRGIDLLKKDKSRKRSYSPDGKESPSDKKSKTDGSQKTESSTEGKEQEEKSGEDGEKDTKDDQTEQEPNMLLESEDELLVDEEEAAALLESGSSVGDETDLANLGDVASDGKKEPSDKAVKKDGSASAAAKKKLKKVDKIEELDQENEAALENGIKNEENTEPGAESSENADDPNKDTSENADGQSDENKDDYTIPDEYRIGPYQPNVPVGIDYVIPKTGFYCKLCSLFYTNEEVAKNTHCSSLPHYQKLKKFLNKLAEERRQKKET	no binding (tested: 2 μM StrepII-His6-RBPMS)
ESRP2 (protein, UniProt Q9H6T0 1-727) MTPPPPPPPPPGPDPAADPAADPCPWPGSLVVLFGATAGALGRDLGSDETDLILLVWQVVEPRSRQVGTLHKSLVRAEAAALSTQCREASGLSADSLARAEPLDKVLQQFSQLVNGDVALLGGGPYMLCTDGQQLLRQVLHPEASRKNLVLPDMFFSFYDLRREFHMQHPSTCPARDLTVATMAQGLGLETDATEDDFGVWEVKTMVAVILHLLKEPSSQLFSKPEVIKQKYETGPCSDSTVPCPYSSKADVVDSETVVRARGLPWQSSDQDVARFFKGLNVARGGVALCLNAQGRRNGEALIRFVDSEQRDLALQRHKHHMGVRYIEVYKATGEEFVKIAGGTSLEVARFLSREDQVILRLRGLPFSAGPTDVLGFLGPECPVTGGTEGLLFVRHPDGRPTGDAFALFACEELAQAALRRHKGMLGKRYIELFRSTAAEVQQVLNRYASGPLLPTLTAPLLPIPFPLAPGTGRDCVRLRGLPYTATIEDILSFLGEAAADIRPHGVHMVLNQQGRPSGDAFIQMTSAERALAAAQRCHKKVMKERYVEVVPCSTEEMSRVLMGGTLGRSGMSPPPCKLPCLSPPTYTTFQATPTLIPTETAALYPSSALLPAARVPAAPTPVAYYPGPATQLYLNYTAYYPSPPVSPTTVGYLTTPTAALASAPTSVLSQSGALVRMQGVPYTAGMKDLLSVFQAYQLPADDYTSLMPVGDPPRTVLQAPKEWVCL	no binding (tested: 2 μM StrepII-His6-RBPMS)

These are yes or no findings as the source states them, for the method shown. Binding seen in cells or lysates may run through a third protein. A result given as binding can be weak or reduced; the word gives no strength.
